Laboratory results from article doi:10.1101/2023.01.18.524494.
These are yes or no findings as the source states them, for the method shown. A result given as binding can be weak or reduced; the word gives no strength. Tags and fused reporters may be left off the sequences shown.

Legend:
Experiment in all cases: cryo-EM structure
[1] = target: Kluyveromyces lactis ribosomal protein eS10 (Kluyveromyces lactis (endogenous))
[2] = target: Kluyveromyces lactis ribosomal protein uS10 (Kluyveromyces lactis (endogenous))
[3] = target: Kluyveromyces lactis ribosomal protein uS3 (Kluyveromyces lactis (endogenous))

binding [1]: binds
binding [2]: binds
binding [3]: binds
B1: Saccharomyces cerevisiae eukaryotic initiation factor 4B (protein, UniProt P34167 1-436)
chain: MAPPKKTVKKMDLTSFLNDDTFGSSWAEEDVDLNKITIPIETANANTIPLSELAHAKNNSNNTRSGGFGGSFGGRSRLDPALGGGSSDRREEYPVPDAPPYRAVINNIPWDITPEGVQAWVEDGLVKPEAVEEVVLPKNLRDPTRLKGNAFVTLKERADLVAVLKFNGTKLNERTVYVSVAAPRRGGGADVDWSSARGSNFQGDGREDAPDLDWGAARGSNFRGPRREREEVDIDWTAARGSNFQGSSRPPRREREEVDIDWSAARGSNFQGSSRPPRREREEPDIDWSAARGSNFQSSSRPPRREREEPDIDWSAARGSNFQSSSRPPRREREKEEPALDWGAARGAQFGKPQQTKNTYKDRSLTNKKTTDEQPKIQKSVYDVLRTEDDDEDEEAEKQNGDAKENKVDAAVEKLQDKTAQLTVEDGDNWEVVGKK
